In article PMC4474691, “Leukemia-Associated Mutations in Nucleophosmin Alter Recognition by CRM1: Molecular Basis of Aberrant Transport” (PLoS ONE, 2015):
Results are given in words; binding and its absence hold for the method and conditions named. A result given as binding can be weak or reduced; the word gives no strength.

By UniProt entry, the sequences of proteins in these tests, tags left out. Where a name states a change or a piece, a line headed by the entry shows the natural chain unless it says otherwise. Chains listed by the source or under a name are the forms on record and can include a tag or linker.
UniProt Q6P5F9: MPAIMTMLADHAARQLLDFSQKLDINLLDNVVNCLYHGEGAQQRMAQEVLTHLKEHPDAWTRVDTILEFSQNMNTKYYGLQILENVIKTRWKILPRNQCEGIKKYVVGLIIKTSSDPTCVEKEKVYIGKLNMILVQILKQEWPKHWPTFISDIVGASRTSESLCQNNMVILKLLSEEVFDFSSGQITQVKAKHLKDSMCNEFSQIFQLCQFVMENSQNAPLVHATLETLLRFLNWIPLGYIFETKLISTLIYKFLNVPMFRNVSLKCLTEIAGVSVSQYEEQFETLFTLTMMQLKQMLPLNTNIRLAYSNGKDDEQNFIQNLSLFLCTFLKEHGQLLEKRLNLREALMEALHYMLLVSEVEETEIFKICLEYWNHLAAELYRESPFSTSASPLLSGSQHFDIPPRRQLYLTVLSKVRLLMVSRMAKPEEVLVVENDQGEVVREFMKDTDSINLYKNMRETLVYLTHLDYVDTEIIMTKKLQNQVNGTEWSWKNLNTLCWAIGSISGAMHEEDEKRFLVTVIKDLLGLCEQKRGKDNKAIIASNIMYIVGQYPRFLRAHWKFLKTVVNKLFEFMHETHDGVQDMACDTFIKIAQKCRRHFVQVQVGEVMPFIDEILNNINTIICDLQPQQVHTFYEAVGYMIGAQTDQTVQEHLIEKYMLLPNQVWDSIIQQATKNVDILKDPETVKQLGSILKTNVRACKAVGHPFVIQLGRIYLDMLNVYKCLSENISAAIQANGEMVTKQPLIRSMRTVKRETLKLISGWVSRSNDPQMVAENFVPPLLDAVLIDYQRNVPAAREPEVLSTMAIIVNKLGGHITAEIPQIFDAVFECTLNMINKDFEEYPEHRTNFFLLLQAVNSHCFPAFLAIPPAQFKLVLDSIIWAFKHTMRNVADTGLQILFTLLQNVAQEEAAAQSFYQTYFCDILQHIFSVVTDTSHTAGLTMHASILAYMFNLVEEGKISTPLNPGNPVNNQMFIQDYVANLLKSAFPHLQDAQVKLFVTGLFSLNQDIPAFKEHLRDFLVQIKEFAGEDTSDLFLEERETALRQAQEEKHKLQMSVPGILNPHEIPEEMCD
NPMmutE (AML-associated NPM mutant E) (P06748, form named): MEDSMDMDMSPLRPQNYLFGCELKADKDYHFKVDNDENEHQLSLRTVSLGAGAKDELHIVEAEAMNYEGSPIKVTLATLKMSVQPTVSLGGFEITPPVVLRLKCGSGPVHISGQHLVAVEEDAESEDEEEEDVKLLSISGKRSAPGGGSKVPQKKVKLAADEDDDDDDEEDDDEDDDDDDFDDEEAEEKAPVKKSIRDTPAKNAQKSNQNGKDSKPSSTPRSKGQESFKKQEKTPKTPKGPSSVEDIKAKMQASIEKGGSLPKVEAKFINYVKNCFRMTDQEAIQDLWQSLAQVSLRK

Molecular target: CRM1^HA (high affinity mutant of CRM1) (UniProt Q6P5F9)
Experiment: SEC; NPM variant 20 μM (pentamer) mixed with 40 μM CRM1^HA, 30 min at room temperature; Superdex 200 10/30, 20 mM Tris/HCl pH 7.4, 100 mM NaCl, 5 mM DTT, 2 mM MgCl2, 15°C; fractions analysed by SDS-PAGE; no RanGTP; both purified

- binding: binds
Substance: NPMmutE (AML-associated NPM mutant E) (from UniProt P06748 1-294)
